These results are taken from US20090215029.

The exact form of at least one protein or probe is not confirmed.

For this series, the system named is GAL4 (Saccharomyces cerevisiae). Description: EMSA. The conditions noted are these: purified recombinant protein; protein details: Santa Cruz Biotechnology sc-4050. For orientation: In EMSA bound probe runs differently from free probe, usually more slowly.

With “GATCCAATACGACTCACTATAGCGGAAGACTCTCCTCCGGAGG / GATCCCTCCGGAGGAGAGTCTTCCGCTATAGTGAGTCGTATTG [GAL4 target sequence duplex]”, the binding result was “binds”.
